Where a chain is given by its changes, count along the chain named. These are yes or no findings as the source states them, for the method shown. Some binding calls cover weakened binding; strength is not graded here. Each block holds one binder with its values, some of them ahead of it.
Experiments:
[1] = target: substituted human PD-1, domain #1 replaced with the corresponding amino acid sequence of mouse PD-1 (human; mouse) (UniProt Q15116); experiment: flow cytometry on cells expressing substituted human PD-1
[2] = target: human PD-1 (wild-type), expressed on cells (human) (UniProt Q15116); experiment: flow cytometry on PD-1-expressing cells

Amino acid sequences for entries named in this document (tags omitted). A change or cut given only in a name is not applied to a line headed by its entry.
UniProt Q15116: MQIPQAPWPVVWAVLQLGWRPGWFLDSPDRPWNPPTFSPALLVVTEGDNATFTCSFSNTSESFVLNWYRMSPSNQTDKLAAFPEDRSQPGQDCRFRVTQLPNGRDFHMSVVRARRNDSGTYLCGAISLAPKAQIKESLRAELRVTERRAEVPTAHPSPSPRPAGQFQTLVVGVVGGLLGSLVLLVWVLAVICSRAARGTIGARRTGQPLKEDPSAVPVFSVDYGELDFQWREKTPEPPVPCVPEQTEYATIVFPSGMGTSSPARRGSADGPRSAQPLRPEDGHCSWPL

binding [1]: binds
binding [2]: binds
B1: HM698 (antibody, V domains shown)
VH: EVLLQQSGPELVKPGASVKIPCKASGYTFTDYNMDWVKQSHGKSLEWIGDIDPNNGGTVYNQKFKGKASLTVDKSSSTAYMELRSLTSEDTAVYYCARWRSAMDYWGQGTSVTVSS
VL: DIQMTQTTSSLSASLGDRVTISCRASQDISNYLNWYQQKPDGTVKLLIYYTSRLHSGVPSRFSGSGSGTDYSLTISNLEQEDIATYFCQQYNTLPWTFGGGTKLEIKR

binding [2]: binds
B2: HM624 (antibody, V domains shown)
VH: B1 VH with K13Q, A16T, P21F, M34I, L45H, S69T, S77T, A97T, S101G, Q108R
VL: B1 VL with I29V, Y50D, R53K, S76R, N77D, L78P, E79D, Y91G, N92H, K107R

binding [1]: binds
binding [2]: binds
B3: HM647 (antibody, V domains shown)
VH: B1 VH with P21T, G66D, A79G
VL: B1 VL with T7P, Y49S, E81V, N92S, T102S
